Data on 1 molecule can be found in paper doi:10.1101/2020.04.18.047571.

The chains behind the UniProt entries cited, without tags or fusion partners.
UniProt P06730: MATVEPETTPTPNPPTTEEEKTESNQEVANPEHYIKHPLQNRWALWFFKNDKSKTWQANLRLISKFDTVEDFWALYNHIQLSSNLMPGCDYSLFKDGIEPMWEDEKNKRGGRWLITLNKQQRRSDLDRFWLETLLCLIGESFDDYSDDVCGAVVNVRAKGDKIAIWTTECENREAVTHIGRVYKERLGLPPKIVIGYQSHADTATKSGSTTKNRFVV

The target of this experiment is 3X-flag/1X-myc epitope-tagged human eIF4E (flag-eIF4E) (human) (UniProt P06730). Kind of experiment: co-IP.

Results are given in words; binding and its absence hold for the method and conditions named. Binding seen in cells or lysates may run through a third protein. Some entries that bind do so weakly or less than the wild type.

B1: 4E-BP2 (eIF4E-binding protein 2) (protein, UniProt Q13542 1-120)
chain: MSSSAGSGHQPSQSRAIPTRTVAISDAAQLPHDYCTTPGGTLFSTTPGGTRIIYDRKFLLDRRNSPMAQTPPCHLPNIPGVTSPGTLIEDSKVEVNNLNNLNNHDRKHAVGDDAQFEMDI
B1: the binding entry was “binds”.
